The record followed here is PMC3898904.

These are yes or no findings as the source states them, for the method shown. In cells and extracts the contact can be indirect. A yes stands for co-enrichment or nearness to the bait. Other partners may have been found. For some assays here: A no says only that the protein was not detected with the bait. Sequences can lack the tags named with a protein.

Assay in all cases: affinity purification with mass spectrometry; 3 g flower tissue of transgenic plants; Lysis buffer (50 mM Tris pH 7.6, 150 mM NaCl, 5 mM MgCl2, 10% glycerol, 0.1% NP-40, 0.5 mM DTT); antibody agarose, 4°C, 2.5 h, four washes, elution with 3xFlag peptide; total eluted proteins or silver-stained bands cut from the SDS-PAGE gel; LTQ mass spectrometer, Mascot
In test [1] the target is T1, MORC6-3xFlag (Arabidopsis thaliana) (UniProt Q56Y74).
T1 sequence: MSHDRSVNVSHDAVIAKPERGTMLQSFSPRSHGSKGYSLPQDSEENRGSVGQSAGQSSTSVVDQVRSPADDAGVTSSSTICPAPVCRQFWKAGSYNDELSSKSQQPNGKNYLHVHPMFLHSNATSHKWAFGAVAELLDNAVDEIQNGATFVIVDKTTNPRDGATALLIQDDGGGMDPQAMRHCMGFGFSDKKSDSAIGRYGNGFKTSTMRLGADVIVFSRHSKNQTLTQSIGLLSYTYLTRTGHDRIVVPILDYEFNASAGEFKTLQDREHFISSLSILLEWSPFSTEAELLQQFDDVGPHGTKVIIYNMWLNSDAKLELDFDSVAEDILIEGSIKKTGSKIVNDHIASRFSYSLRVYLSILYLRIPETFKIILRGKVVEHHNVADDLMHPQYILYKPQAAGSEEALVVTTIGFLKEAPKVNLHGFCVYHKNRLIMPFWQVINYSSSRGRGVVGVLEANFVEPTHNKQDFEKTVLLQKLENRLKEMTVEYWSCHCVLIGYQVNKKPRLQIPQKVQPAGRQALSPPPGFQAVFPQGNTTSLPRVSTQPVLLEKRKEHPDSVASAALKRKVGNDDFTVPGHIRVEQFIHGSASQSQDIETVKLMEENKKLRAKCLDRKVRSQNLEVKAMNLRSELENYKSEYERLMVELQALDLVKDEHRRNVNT

Test [2] has as its target T2, SUVH2-3xMyc (Arabidopsis thaliana) (UniProt O22781).
T2 sequence: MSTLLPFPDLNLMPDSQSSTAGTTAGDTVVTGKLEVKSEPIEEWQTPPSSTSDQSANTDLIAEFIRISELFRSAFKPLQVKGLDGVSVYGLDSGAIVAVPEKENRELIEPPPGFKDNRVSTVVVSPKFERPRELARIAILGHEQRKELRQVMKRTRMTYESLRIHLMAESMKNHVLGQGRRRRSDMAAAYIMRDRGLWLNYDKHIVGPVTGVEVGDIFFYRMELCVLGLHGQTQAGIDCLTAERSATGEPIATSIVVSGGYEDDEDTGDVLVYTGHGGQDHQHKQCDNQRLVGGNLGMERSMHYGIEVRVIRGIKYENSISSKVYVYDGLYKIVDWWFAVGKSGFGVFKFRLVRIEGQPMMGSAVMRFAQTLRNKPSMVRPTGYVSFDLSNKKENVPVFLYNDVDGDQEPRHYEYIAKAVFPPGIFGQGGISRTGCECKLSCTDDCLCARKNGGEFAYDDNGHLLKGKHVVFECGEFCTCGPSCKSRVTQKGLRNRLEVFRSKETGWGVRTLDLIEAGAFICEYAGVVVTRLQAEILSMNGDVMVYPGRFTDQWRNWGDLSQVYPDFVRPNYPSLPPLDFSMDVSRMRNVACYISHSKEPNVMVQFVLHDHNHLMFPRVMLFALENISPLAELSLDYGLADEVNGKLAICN

Test [3] deals with T3, SUVH9-3xFlag (Arabidopsis thaliana) (UniProt Q9T0G7).
T3 sequence: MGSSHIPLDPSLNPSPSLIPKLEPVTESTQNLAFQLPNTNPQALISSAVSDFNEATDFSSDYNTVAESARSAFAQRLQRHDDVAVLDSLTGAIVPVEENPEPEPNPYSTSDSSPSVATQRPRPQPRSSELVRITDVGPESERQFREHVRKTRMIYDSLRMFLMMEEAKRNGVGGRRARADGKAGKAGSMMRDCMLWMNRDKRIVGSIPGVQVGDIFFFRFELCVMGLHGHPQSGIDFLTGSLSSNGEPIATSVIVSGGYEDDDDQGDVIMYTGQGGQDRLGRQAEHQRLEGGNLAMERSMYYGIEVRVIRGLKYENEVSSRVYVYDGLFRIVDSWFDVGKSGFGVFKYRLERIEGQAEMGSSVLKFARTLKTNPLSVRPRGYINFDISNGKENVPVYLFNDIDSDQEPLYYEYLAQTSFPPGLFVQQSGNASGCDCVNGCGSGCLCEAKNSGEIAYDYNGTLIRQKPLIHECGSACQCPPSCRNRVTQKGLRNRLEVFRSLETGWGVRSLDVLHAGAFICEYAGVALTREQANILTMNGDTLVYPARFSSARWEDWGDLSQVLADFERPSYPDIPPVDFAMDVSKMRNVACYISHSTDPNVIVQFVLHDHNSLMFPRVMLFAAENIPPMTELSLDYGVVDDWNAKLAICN

“… IN MERISTEM … 3 (DMS3), endogenous (from UniProt Q94A79 1-420)”: the binding entry is on record as “no binding” in test [1] and “binds” in test [2].

B1: … IN RNA-DIRECTED DNA …ON 1 (DRD1), endogenous (protein, UniProt Q9SIW2 1-888)
chain: MGFVYIVMTGYYKNVHKRKQNQVDDGPEAKRVKSSAKVIDYSNPFAVSNMLEALDSGKFGSVSKELEEIADMRMDLVKRSIWLYPSLAYTVFEAEKTMDNQQVVEGVINLDDDDDDDTDVEKKALCVVPSSSEIVLLDSDDEDNERQRPMYQFQSTLVQHQKNQGDVTPLIPQCSFEEVDLGRGKEMPSAIKAIVEGQTSRGKVLPIENGVVNEKGVYVGVEEDDSDNESEAADEDLGNIWNEMALSIECSKDVARETSHKEKADVVEDCEHSFILKDDMGYVCRVCGVIEKSILEIIDVQFTKAKRNTRTYASETRTKRFGESDNELKFSEEGLMIGGLAAHPTHAAEMKPHQIEGFQFLCSNLVADDPGGCIMAHAPGSGKTFMIISFMQSFLAKYPQAKPLVVLPKGILPTWKKEFVRWQVEDIPLLDFYSAKAENRAQQLSILKQWMEKKSILFLGYQQFSTIVCDDTTDSLSCQEILLKVPSILILDEGHTPRNEDTNLLQSLAQVQTPRKVVLSGTLYQNHVKEVFNILNLVRPKFLKLDTSKSAVKRILAYTPCDVRGRLTGSNSDMASMFNETVEHTLQKSEDFTVKIKVIQDLREMTKKVLHYYKGDFLDELPGLADFTVVLNLSPKQLNEVKKLRREKRKFKVSAVGSAIYLHPKLKVFSDKSDDVSDTTMDEMVEKLDLNEGVKAKFFLNLINLCDSAGEKLLVFSQYLIPLKFLERLAALAKGWKLGKEVFVLTGNTSSEQREWSMETFNSSPDAKIFFGSIKACGEGISLVGASRILILDVPLNPSVTRQAIGRAFRPGQKKMVHAYRLIAGSSPEEEDHNTCFKKEVISKMWFEWNEYCGYQNFEVETIDVDEAGDTFLESPALREDIRVLYKR
Turning to B1, in test [2], the binding entry was “binds”.

B2: MORC6/… IN MERISTEM … 11 (DMS11), endogenous (protein, UniProt Q56Y74 1-663)
chain: MSHDRSVNVSHDAVIAKPERGTMLQSFSPRSHGSKGYSLPQDSEENRGSVGQSAGQSSTSVVDQVRSPADDAGVTSSSTICPAPVCRQFWKAGSYNDELSSKSQQPNGKNYLHVHPMFLHSNATSHKWAFGAVAELLDNAVDEIQNGATFVIVDKTTNPRDGATALLIQDDGGGMDPQAMRHCMGFGFSDKKSDSAIGRYGNGFKTSTMRLGADVIVFSRHSKNQTLTQSIGLLSYTYLTRTGHDRIVVPILDYEFNASAGEFKTLQDREHFISSLSILLEWSPFSTEAELLQQFDDVGPHGTKVIIYNMWLNSDAKLELDFDSVAEDILIEGSIKKTGSKIVNDHIASRFSYSLRVYLSILYLRIPETFKIILRGKVVEHHNVADDLMHPQYILYKPQAAGSEEALVVTTIGFLKEAPKVNLHGFCVYHKNRLIMPFWQVINYSSSRGRGVVGVLEANFVEPTHNKQDFEKTVLLQKLENRLKEMTVEYWSCHCVLIGYQVNKKPRLQIPQKVQPAGRQALSPPPGFQAVFPQGNTTSLPRVSTQPVLLEKRKEHPDSVASAALKRKVGNDDFTVPGHIRVEQFIHGSASQSQDIETVKLMEENKKLRAKCLDRKVRSQNLEVKAMNLRSELENYKSEYERLMVELQALDLVKDEHRRNVNT
Take B2: the binding entry in test [3] and in test [1] was “binds” each time.
